Data taken from the supplement of paper PMC10849652.
The other results are listed elsewhere or left out.

Protein sequences, listed by entry. Tags and fused reporters are not part of them. Lines headed by an entry give the natural chain unless they say otherwise; changes in a name come on top.
UniProt Q8IU81: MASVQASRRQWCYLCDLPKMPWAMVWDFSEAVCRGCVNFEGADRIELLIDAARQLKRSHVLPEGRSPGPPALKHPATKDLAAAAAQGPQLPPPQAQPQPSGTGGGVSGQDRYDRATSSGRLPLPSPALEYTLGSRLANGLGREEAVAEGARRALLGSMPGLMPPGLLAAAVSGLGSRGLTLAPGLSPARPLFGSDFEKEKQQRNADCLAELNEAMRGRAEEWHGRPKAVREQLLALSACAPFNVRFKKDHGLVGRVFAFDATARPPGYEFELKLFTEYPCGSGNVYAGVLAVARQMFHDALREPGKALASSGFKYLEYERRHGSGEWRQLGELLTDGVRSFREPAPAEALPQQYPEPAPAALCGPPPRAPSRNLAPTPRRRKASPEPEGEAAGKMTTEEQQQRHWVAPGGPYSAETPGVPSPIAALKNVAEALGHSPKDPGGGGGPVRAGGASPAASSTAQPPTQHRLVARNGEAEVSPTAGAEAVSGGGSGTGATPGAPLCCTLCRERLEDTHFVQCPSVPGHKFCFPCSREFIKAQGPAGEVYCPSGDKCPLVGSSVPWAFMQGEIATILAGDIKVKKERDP
UniProt Q9H7Z6: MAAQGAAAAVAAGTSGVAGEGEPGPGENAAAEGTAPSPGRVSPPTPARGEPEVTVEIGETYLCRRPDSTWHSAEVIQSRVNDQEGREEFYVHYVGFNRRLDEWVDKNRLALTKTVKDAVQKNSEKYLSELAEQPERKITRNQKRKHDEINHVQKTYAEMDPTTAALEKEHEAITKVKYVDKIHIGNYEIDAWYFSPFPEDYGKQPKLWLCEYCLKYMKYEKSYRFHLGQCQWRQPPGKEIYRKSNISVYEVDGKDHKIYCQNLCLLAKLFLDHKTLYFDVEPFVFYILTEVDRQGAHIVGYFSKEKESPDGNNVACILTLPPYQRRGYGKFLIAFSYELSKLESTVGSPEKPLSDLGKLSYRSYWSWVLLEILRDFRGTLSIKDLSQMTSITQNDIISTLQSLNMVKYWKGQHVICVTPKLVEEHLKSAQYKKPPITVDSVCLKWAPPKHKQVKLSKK
UniProt O15397, whole entry, looked up: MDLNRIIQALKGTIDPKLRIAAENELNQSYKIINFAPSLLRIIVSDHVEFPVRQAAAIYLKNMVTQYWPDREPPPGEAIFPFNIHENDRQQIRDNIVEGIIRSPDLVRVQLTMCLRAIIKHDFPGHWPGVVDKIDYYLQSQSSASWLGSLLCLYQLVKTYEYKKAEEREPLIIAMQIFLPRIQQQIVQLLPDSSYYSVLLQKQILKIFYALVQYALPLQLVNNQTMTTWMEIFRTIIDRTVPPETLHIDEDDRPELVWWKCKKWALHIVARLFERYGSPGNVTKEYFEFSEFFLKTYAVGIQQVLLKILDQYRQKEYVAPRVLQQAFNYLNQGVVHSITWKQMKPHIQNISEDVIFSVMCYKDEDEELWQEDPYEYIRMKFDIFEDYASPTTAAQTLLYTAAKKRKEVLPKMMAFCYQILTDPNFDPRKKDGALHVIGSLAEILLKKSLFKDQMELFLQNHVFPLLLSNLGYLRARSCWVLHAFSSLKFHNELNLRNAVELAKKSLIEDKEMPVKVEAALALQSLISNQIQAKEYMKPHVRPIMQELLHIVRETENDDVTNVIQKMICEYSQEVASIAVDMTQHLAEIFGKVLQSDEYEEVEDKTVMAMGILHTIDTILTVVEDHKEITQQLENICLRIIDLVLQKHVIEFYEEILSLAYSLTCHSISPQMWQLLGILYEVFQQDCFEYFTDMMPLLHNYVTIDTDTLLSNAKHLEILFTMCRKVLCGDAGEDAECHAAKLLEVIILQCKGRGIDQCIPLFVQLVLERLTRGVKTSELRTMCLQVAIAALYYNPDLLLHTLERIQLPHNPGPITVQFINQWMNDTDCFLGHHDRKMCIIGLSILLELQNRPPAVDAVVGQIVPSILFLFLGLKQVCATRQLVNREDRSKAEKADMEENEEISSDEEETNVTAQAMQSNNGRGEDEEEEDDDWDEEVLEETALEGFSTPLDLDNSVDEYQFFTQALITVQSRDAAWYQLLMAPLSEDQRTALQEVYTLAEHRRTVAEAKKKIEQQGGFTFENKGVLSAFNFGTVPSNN
UniProt Q8N5M9: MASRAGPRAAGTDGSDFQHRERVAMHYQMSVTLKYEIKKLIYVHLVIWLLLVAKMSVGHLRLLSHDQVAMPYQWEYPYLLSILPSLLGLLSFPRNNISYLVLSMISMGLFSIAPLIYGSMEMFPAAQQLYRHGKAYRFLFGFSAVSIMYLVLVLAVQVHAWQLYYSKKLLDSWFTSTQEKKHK
UniProt Q96SI1: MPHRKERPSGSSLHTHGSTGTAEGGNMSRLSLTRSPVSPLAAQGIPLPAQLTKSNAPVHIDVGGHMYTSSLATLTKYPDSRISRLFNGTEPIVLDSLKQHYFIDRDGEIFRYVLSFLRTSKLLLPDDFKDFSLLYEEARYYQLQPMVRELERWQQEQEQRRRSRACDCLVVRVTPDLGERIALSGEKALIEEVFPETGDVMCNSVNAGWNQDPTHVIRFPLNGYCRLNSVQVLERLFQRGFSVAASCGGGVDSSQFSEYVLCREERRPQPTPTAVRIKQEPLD
UniProt P08648, whole entry, looked up: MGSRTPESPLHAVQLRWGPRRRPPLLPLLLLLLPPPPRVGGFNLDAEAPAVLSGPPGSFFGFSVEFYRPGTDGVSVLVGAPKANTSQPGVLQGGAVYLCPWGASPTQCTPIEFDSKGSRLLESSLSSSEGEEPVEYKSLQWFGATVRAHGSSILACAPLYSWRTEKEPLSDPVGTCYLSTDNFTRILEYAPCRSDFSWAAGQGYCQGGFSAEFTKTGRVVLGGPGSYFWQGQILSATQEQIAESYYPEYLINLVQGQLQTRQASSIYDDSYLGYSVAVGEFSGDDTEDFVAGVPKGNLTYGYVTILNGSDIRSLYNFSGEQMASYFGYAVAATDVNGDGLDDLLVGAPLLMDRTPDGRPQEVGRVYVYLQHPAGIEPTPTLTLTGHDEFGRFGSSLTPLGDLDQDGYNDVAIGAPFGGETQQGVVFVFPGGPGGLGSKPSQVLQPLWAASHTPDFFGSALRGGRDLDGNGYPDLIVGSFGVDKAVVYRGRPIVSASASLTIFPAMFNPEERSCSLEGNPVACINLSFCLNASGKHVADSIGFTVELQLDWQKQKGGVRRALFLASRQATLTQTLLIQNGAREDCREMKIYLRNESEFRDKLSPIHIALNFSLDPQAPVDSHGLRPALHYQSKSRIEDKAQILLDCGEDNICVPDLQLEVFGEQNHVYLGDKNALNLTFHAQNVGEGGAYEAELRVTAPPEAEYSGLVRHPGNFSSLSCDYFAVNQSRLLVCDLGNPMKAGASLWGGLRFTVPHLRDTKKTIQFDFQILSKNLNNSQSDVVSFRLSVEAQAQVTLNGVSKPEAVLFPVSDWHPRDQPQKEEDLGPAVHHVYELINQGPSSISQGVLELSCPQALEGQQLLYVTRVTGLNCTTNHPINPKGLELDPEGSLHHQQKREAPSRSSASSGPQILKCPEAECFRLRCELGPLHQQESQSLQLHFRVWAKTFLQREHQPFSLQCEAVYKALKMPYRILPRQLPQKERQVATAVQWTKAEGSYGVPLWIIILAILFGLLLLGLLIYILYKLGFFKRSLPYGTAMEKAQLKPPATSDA
UniProt Q8NB78: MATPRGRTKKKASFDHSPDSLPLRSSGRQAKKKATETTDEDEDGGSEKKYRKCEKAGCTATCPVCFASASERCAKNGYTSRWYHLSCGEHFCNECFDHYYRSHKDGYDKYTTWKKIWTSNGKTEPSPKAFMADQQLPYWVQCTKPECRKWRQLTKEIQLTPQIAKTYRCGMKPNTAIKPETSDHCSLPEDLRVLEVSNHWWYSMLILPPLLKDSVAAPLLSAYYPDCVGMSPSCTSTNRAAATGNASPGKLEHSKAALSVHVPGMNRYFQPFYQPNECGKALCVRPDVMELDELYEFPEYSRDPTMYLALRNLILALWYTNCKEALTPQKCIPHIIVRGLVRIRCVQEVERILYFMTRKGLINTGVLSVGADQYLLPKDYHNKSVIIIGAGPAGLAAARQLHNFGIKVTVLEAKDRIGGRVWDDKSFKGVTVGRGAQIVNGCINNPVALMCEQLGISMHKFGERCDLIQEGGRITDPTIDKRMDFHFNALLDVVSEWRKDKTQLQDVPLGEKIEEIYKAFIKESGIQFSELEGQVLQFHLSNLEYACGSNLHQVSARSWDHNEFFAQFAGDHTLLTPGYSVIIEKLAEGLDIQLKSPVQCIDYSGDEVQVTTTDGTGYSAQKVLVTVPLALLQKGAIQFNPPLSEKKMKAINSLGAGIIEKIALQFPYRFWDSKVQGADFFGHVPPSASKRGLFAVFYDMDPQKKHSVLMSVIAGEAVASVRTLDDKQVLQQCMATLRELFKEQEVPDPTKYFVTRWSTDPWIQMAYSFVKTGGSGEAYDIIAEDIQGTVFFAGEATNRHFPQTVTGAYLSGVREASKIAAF
UniProt Q9H1K1: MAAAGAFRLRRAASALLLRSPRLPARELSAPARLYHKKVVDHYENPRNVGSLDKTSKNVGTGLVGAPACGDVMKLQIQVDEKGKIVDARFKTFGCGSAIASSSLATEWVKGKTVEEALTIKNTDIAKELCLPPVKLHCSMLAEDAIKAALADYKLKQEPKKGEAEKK
UniProt Q96AB3: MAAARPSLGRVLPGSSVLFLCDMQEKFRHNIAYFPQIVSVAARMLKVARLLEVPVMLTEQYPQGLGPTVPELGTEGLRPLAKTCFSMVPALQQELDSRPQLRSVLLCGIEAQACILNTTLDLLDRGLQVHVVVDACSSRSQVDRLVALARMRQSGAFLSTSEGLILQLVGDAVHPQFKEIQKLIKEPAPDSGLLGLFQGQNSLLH
UniProt O95251, whole entry, looked up: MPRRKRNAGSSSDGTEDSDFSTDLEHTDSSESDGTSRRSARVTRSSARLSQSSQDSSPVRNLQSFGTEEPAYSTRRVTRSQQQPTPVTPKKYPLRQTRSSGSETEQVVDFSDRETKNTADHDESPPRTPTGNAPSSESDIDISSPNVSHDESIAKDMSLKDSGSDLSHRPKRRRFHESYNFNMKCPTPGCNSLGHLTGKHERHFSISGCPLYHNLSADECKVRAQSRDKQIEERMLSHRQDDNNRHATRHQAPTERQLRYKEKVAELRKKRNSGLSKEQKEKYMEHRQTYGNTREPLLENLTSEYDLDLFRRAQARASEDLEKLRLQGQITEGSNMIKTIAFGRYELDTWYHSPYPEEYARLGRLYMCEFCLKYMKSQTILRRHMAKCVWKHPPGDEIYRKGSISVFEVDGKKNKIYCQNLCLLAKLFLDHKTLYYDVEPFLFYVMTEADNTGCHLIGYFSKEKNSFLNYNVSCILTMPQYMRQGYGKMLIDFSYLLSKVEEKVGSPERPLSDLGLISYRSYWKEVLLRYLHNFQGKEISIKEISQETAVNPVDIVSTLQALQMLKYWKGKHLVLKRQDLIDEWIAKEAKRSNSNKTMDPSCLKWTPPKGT
UniProt Q92993, whole entry, looked up: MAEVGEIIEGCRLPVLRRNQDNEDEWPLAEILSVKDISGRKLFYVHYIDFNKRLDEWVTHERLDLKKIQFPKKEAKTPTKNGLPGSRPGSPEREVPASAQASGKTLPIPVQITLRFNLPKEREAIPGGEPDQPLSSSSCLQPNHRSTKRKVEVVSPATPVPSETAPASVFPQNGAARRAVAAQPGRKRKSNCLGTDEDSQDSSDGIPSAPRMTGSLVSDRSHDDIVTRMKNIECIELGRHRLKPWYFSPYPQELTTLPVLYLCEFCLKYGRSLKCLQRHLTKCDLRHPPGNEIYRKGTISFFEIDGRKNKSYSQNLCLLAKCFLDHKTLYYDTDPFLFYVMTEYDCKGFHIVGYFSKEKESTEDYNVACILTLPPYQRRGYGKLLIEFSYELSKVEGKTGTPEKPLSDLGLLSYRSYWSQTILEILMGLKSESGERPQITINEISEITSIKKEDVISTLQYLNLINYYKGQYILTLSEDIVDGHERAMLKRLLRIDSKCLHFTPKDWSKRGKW
UniProt Q96DU7: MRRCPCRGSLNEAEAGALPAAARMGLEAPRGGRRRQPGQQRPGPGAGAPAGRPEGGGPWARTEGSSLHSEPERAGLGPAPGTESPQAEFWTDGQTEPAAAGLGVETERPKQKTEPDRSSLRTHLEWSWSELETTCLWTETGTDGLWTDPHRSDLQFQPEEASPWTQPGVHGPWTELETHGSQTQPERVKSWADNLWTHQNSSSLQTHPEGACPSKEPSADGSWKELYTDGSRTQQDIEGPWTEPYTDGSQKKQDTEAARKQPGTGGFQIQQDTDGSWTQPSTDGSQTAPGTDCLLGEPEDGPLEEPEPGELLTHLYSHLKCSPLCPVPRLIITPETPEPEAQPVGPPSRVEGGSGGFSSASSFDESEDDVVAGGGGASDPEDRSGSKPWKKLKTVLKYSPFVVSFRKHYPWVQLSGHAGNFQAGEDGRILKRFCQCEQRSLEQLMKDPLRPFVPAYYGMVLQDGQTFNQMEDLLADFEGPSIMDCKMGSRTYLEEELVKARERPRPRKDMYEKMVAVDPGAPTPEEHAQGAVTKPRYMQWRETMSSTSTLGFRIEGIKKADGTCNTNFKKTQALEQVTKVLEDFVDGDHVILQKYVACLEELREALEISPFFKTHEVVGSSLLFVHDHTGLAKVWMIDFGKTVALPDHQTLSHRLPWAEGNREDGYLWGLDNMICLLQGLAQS

Key:
Experiment in all cases: log2 fold change, soluble protein after heating vs DMSO (PISA); higher = thermal stabilisation; K562 lysate, 10 uM; active = over 0.2 and 3.5 SD of the protein, either way, in both replicates (recomputed)
[1] = compound: NCC(=O)Nc1ccc(-n2nc(C(F)(F)F)cc2-c2ccc3c(ccc4ccccc43)c2)cc1
Summary of the method: (§1)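 K562 pellets were dounce-homogenised in PBS pH 7.4 with 1 mM MgCl2, and the crude extract at 1 mg/mL protein was treated with 10 μM compound for 30 min. Aliquots were heated for 3 min across 48°C-58°C, pooled, and brought to 0.5% NP-40 at 4°C; soluble protein was the supernatant after 21,000xg for 90 min. Soluble protein was quantified by TMTpro 16plex LC-MS/MS with channel sums equalised, and reported as log2 fold change in thermal stability against DMSO controls, with values from duplicates.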

vorinostat = compound: O=C(CCCCCCC(=O)Nc1ccccc1)NO [vorinostat]
Summary of the method: as §1

silmitasertib = compound: O=C(O)c1ccc2c(c1)nc(Nc1cccc(Cl)c1)c1ccncc12 [silmitasertib]
Summary of the method: as §1

[2] = compound: O=C1NC(=O)C(c2cnc3ccccn23)=C1c1cn2c3c(cc(F)cc13)CN(C(=O)N1CCCCC1)CC2
Summary of the method: as §1

entospletinib = compound: c1cn2cc(-c3ccc4cn[nH]c4c3)nc(Nc3ccc(N4CCOCC4)cc3)c2n1 [entospletinib]
Summary of the method: as §1

Measured: log2 fold change

KANSL3 (UniProt Q9P2N6)
inactive: [1] 0.175 | vorinostat -0.056 | silmitasertib 0.053 | [2] 0.099 | entospletinib -0.065

KCTD7 (UniProt Q96MP8)
inactive: [1] -0.093 | vorinostat -0.093 | silmitasertib -0.097 | [2] -0.362 | entospletinib -0.038

KBTBD7 (UniProt Q8WVZ9)
inactive: [1] -0.022 | vorinostat 0.041 | silmitasertib -0.05 | [2] -0.018 | entospletinib 0.069

IPO7 (UniProt O95373)
inactive: [1] -0.001 | vorinostat 0.032 | silmitasertib 0.011 | [2] -0.008 | entospletinib 0.028

IRF2BP1 (UniProt Q8IU81)
inactive: [1] 0.021 | silmitasertib -0.003 | [2] -0.03 | entospletinib 0.01
active: vorinostat -0.4

IQSEC1 (UniProt Q6DN90)
inactive: [1] -0.016 | vorinostat -0.256 | silmitasertib -0.004 | [2] -0.01 | entospletinib -0.057

INTS4 (UniProt Q96HW7)
inactive: [1] 0.004 | vorinostat 0.121 | silmitasertib -0.011 | [2] 0.041 | entospletinib 0.035

JPT1 (UniProt Q9UK76)
inactive: [1] -0.001 | vorinostat 0.163 | silmitasertib -0.076 | [2] 0.012 | entospletinib -0.086

2 entries drawn at random from the list so far:
INTS4 (UniProt Q96HW7)
inactive: [1] 0.004 | vorinostat 0.121 | silmitasertib -0.011 | [2] 0.041 | entospletinib 0.035

JPT1 (UniProt Q9UK76)
inactive: [1] -0.001 | vorinostat 0.163 | silmitasertib -0.076 | [2] 0.012 | entospletinib -0.086

Additional results

IPO11 isoform 2 (UniProt Q9UI26)
inactive: [1] 0.001 | vorinostat -0.127 | silmitasertib -0.02 | [2] -0.018 | entospletinib -0.002

IRAK4 (UniProt Q9NWZ3)
inactive: [1] -0.031 | vorinostat -0.218 | silmitasertib 0.055 | [2] -0.106 | entospletinib 0.042

JMJD1C (UniProt Q15652)
inactive: [1] 0.114 | vorinostat -0.089 | silmitasertib -0.016 | [2] 0.006 | entospletinib 0

IQGAP2 (UniProt Q13576)
inactive: [1] 0.012 | vorinostat -0.21 | silmitasertib 0.038 | [2] 0.018 | entospletinib 0.027

IPO13 (UniProt O94829)
inactive: [1] -0.044 | vorinostat -0.179 | silmitasertib 0.016 | [2] -0.02 | entospletinib -0.005

ITGA2B (UniProt P08514)
inactive: [1] 0.131 | vorinostat 0.128 | silmitasertib 0.017 | [2] -0.106

KCTD3 (UniProt Q9Y597)
inactive: [1] 0.03 | vorinostat -0.003 | silmitasertib -0.008 | [2] -0.022 | entospletinib -0.056

KAT8 (UniProt Q9H7Z6)
inactive: [1] 0.028 | vorinostat 0.008 | silmitasertib -0.02 | [2] -0.08 | entospletinib -0.027

ITFG2 (UniProt H0YGR0)
inactive: [1] 0.031

KATNBL1 (UniProt Q9H079)
inactive: [1] 0.111 | vorinostat -0.176 | silmitasertib -0.02 | [2] 0.144 | entospletinib 0.234

IPO8 (UniProt O15397)
inactive: [1] 0.025 | vorinostat -0.126 | silmitasertib 0.027 | [2] 0.018 | entospletinib 0.026

IQUB (UniProt Q8NA54)
inactive: [1] 0.087

INTS5 (UniProt Q6P9B9)
inactive: [1] -0.045 | silmitasertib 0.088 | [2] 0.039 | entospletinib 0.093
active: vorinostat -0.56

JAGN1 (UniProt Q8N5M9)
inactive: [1] -0.056 | vorinostat 0.135 | silmitasertib -0.068 | [2] 0.074 | entospletinib -0.051

JAK2 (UniProt O60674)
inactive: [1] 0.008 | vorinostat -0.267 | silmitasertib -0.048

KATNB1 (UniProt Q9BVA0)
inactive: [1] -0.075 | vorinostat -0.233 | silmitasertib 0.053 | [2] -0.036 | entospletinib 0.02

KCTD15 (UniProt Q96SI1)
inactive: [1] -0.02 | vorinostat 0.149 | silmitasertib -0.042 | [2] -0.01 | entospletinib 0.006

JPT2 isoform 3 (UniProt Q9H910)
inactive: [1] 0.04 | vorinostat 0.076 | silmitasertib -0.016 | [2] 0.003 | entospletinib 0.004

KCNAB2 (UniProt Q13303)
inactive: [1] 0.011 | vorinostat 0.211 | silmitasertib -0.032 | [2] -0.008 | entospletinib 0.007

KDF1 (UniProt Q8NAX2)
inactive: [1] -0.059 | vorinostat -0.122 | silmitasertib 0.064 | [2] -0.081

INTU (UniProt Q9ULD6)
inactive: [1] 0.296

KCNK5 (UniProt O95279)
inactive: [1] -0.695 | vorinostat 0.133 | silmitasertib -0.2 | [2] -0.243

ITGA5 (UniProt P08648)
inactive: [1] 0.024 | vorinostat 0.102 | silmitasertib -0.011 | [2] -0.01 | entospletinib -0.021

KCTD21 (UniProt Q4G0X4)
inactive: [1] 0.039 | vorinostat -0.314 | silmitasertib -0.06 | [2] 0.188 | entospletinib -0.067

KDM1B (UniProt Q8NB78)
inactive: [1] -0.05 | vorinostat -0.17 | silmitasertib -0.099 | [2] -0.008 | entospletinib -0.019

ISCU (UniProt Q9H1K1)
inactive: [1] -0.027 | vorinostat -0.042 | silmitasertib 0.027 | [2] -0.057 | entospletinib 0.005

ITM2B (UniProt Q9Y287)
inactive: [1] -0.101 | vorinostat 0.141 | silmitasertib 0.013 | [2] 0.004

IQGAP3 (UniProt Q86VI3)
inactive: [1] -0.186 | vorinostat -0.271 | silmitasertib 0.048 | [2] -0.054

ISY1 isoform 1 (UniProt Q9ULR0)
inactive: [1] -0.163 | vorinostat 0.05 | silmitasertib 0.032 | [2] -0.01 | entospletinib -0.02

IRF3 (UniProt Q14653)
inactive: [1] 0.033 | vorinostat -0.189 | silmitasertib 0.011 | [2] 0.002 | entospletinib 0.012

ISOC2 (UniProt Q96AB3)
inactive: [1] -0.064 | silmitasertib -0.036 | [2] 0 | entospletinib 0.033
active: vorinostat 0.304

15 successive entries out of the list so far, for reference:
JAK2 (UniProt O60674)
inactive: [1] 0.008 | vorinostat -0.267 | silmitasertib -0.048

KATNB1 (UniProt Q9BVA0)
inactive: [1] -0.075 | vorinostat -0.233 | silmitasertib 0.053 | [2] -0.036 | entospletinib 0.02

KCTD15 (UniProt Q96SI1)
inactive: [1] -0.02 | vorinostat 0.149 | silmitasertib -0.042 | [2] -0.01 | entospletinib 0.006

JPT2 isoform 3 (UniProt Q9H910)
inactive: [1] 0.04 | vorinostat 0.076 | silmitasertib -0.016 | [2] 0.003 | entospletinib 0.004

KCNAB2 (UniProt Q13303)
inactive: [1] 0.011 | vorinostat 0.211 | silmitasertib -0.032 | [2] -0.008 | entospletinib 0.007

KDF1 (UniProt Q8NAX2)
inactive: [1] -0.059 | vorinostat -0.122 | silmitasertib 0.064 | [2] -0.081

INTU (UniProt Q9ULD6)
inactive: [1] 0.296

KCNK5 (UniProt O95279)
inactive: [1] -0.695 | vorinostat 0.133 | silmitasertib -0.2 | [2] -0.243

ITGA5 (UniProt P08648)
inactive: [1] 0.024 | vorinostat 0.102 | silmitasertib -0.011 | [2] -0.01 | entospletinib -0.021

KCTD21 (UniProt Q4G0X4)
inactive: [1] 0.039 | vorinostat -0.314 | silmitasertib -0.06 | [2] 0.188 | entospletinib -0.067

KDM1B (UniProt Q8NB78)
inactive: [1] -0.05 | vorinostat -0.17 | silmitasertib -0.099 | [2] -0.008 | entospletinib -0.019

ISCU (UniProt Q9H1K1)
inactive: [1] -0.027 | vorinostat -0.042 | silmitasertib 0.027 | [2] -0.057 | entospletinib 0.005

ITM2B (UniProt Q9Y287)
inactive: [1] -0.101 | vorinostat 0.141 | silmitasertib 0.013 | [2] 0.004

IQGAP3 (UniProt Q86VI3)
inactive: [1] -0.186 | vorinostat -0.271 | silmitasertib 0.048 | [2] -0.054

ISY1 isoform 1 (UniProt Q9ULR0)
inactive: [1] -0.163 | vorinostat 0.05 | silmitasertib 0.032 | [2] -0.01 | entospletinib -0.02

(listing goes on)

JUND (UniProt P17535)
inactive: [1] 0.132 | vorinostat 0.009 | silmitasertib -0.005 | [2] 0.015 | entospletinib 0.037

KAT7 (UniProt O95251)
inactive: [1] 0.085 | vorinostat 0.075 | silmitasertib 0.009 | [2] 0.094 | entospletinib 0.047

IPO5 isoform 3 (UniProt O00410)
inactive: [1] -0.009 | vorinostat 0.05 | silmitasertib 0.002 | [2] 0.018 | entospletinib 0.021

KAZN (UniProt Q674X7)
inactive: [1] -0.077 | vorinostat 0.074 | silmitasertib -0.006 | [2] 0.028 | entospletinib 0.022

KDM3B (UniProt Q7LBC6)
inactive: [1] 0.021 | vorinostat -0.194 | silmitasertib -0.006 | [2] -0.006 | entospletinib 0.009

INTS8 (UniProt Q75QN2)
active: vorinostat -0.401
inactive: [1] -0.012 | silmitasertib 0.071 | [2] -0.016 | entospletinib 0.054

KCTD9 (UniProt Q7L273)
inactive: [1] -0.049 | vorinostat -0.007 | silmitasertib -0.062 | [2] 0.016 | entospletinib -0.022

INTS6 (UniProt Q9UL03)
inactive: [1] -0.093 | vorinostat -0.271 | silmitasertib -0.07 | [2] -0.068 | entospletinib 0.266

ITGAV (UniProt P06756)
inactive: [1] 0.038 | vorinostat 0.117 | silmitasertib -0.007 | [2] -0.012 | entospletinib -0.012

ITCH (UniProt Q96J02)
inactive: [1] 0.022 | vorinostat 0.013 | silmitasertib 0.002 | [2] -0.008 | entospletinib 0.03

KAT5 isoform 3 (UniProt Q92993)
inactive: [1] -0.094 | vorinostat -0.239 | silmitasertib 0.052 | [2] -0.075 | entospletinib -0.021

KAT6B (UniProt Q8WYB5)
inactive: [1] 0.076 | vorinostat -0.203 | silmitasertib 0.158 | [2] 0.099 | entospletinib -0.039

IST1 isoform 2 (UniProt P53990)
inactive: [1] 0.021 | vorinostat -0.055 | silmitasertib -0.044 | [2] -0.033 | entospletinib -0.081

KCMF1 (UniProt Q9P0J7)
inactive: [1] 0.031 | vorinostat 0.05 | silmitasertib -0.097 | [2] 0.002 | entospletinib 0.015

ITPKC (UniProt Q96DU7)
inactive: [1] -0.055 | vorinostat -0.148 | silmitasertib -0.089 | [2] 0.107 | entospletinib -0.078

ISCA1 isoform 2 (UniProt Q9BUE6)
inactive: [1] -0.005 | vorinostat 0.043 | silmitasertib 0.015 | [2] 0.004 | entospletinib 0.071

KDM1A (UniProt O60341)
inactive: [1] 0.01 | vorinostat -0.163 | silmitasertib 0.009 | [2] -0.009 | entospletinib 0.01
